This is one part of the list.
Experiments:
Assay in all cases: log2 fold change, soluble protein after heating vs DMSO (PISA); higher = thermal stabilisation; K562 cells, 10 uM, 30 min; active = over 0.2 and 3.5 SD of the protein, either way, in both replicates (recomputed)
[1] = compound: NC(=O)Nc1cc(-c2cccc(F)c2)sc1C(=O)N[C@H]1CCCNC1
Method in brief: (§1)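 Thermal stability values are relative to control samples and come from duplicates. They are expressed as log2 fold changes. For measurement, K562 cells (2×10^6 cells/mL) received 10 μM compound for 30 min, and aliquots were heated for 3 min over 48°C-58°C, pooled, and extracted at 4°C in PBS with 0.5% NP-40. Soluble protein, the supernatant after 21,000xg for 90 min, was quantified by TMTpro 16plex LC-MS/MS with equalised channel sums.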

Chains of the proteins cited; added tags and fusions are not shown. Lines headed by an entry give the natural chain unless they say otherwise; changes in a name come on top.
UniProt Q5FBB7: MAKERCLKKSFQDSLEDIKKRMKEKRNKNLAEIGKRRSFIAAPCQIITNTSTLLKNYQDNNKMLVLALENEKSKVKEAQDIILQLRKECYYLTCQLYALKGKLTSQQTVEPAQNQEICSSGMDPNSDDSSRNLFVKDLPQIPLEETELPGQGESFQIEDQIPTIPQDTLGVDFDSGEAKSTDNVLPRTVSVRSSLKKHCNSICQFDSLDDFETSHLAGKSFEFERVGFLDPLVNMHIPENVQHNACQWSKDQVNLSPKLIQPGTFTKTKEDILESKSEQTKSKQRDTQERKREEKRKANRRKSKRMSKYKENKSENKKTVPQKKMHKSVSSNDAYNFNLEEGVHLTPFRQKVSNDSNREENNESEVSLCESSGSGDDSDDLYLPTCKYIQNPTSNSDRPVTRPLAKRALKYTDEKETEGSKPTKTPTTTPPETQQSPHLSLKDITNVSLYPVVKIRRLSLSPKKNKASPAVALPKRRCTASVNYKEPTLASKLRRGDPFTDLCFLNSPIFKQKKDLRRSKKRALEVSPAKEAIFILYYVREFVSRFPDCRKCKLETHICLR
UniProt Q68CR1: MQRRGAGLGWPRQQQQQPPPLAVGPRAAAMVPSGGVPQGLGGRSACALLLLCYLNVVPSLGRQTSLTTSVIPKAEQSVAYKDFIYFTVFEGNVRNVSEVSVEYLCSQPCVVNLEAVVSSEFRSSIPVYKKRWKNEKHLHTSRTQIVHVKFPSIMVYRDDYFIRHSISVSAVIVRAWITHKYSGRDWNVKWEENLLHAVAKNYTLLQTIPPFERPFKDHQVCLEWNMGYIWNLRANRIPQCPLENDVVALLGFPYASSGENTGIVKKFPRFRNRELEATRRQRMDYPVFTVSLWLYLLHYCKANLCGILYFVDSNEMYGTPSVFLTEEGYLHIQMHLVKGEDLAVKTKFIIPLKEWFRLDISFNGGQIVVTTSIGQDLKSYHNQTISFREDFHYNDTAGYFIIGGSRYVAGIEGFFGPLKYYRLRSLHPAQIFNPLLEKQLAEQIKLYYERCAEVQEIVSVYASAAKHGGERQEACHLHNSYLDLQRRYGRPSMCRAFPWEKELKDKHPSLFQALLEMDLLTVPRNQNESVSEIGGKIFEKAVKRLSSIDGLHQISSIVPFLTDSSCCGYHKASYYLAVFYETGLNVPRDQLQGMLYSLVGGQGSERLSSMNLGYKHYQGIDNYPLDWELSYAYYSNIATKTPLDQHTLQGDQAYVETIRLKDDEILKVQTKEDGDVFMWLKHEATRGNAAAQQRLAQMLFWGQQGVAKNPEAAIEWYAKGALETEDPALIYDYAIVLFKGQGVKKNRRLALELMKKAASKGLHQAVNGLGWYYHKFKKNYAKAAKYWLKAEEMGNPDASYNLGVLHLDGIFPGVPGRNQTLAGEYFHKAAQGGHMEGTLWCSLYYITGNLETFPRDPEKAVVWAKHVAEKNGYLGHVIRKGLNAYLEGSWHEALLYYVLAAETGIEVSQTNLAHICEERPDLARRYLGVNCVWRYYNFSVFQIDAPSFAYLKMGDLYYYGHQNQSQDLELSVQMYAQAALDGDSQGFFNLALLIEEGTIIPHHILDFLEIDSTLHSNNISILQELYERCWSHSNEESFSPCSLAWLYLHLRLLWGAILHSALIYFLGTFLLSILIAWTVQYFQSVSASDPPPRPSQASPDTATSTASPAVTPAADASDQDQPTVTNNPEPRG
UniProt Q15427: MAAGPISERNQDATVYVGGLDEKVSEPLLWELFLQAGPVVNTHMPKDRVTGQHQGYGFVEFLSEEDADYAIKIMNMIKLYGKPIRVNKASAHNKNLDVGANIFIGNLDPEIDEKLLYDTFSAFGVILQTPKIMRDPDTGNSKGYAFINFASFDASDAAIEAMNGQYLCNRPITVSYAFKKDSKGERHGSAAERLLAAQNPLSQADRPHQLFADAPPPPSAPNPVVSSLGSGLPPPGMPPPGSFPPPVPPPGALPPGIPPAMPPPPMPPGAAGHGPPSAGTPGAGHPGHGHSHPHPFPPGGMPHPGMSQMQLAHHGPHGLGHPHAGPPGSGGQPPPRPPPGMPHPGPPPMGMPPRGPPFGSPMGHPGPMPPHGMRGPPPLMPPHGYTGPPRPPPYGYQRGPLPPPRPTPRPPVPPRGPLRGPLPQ
UniProt O43765: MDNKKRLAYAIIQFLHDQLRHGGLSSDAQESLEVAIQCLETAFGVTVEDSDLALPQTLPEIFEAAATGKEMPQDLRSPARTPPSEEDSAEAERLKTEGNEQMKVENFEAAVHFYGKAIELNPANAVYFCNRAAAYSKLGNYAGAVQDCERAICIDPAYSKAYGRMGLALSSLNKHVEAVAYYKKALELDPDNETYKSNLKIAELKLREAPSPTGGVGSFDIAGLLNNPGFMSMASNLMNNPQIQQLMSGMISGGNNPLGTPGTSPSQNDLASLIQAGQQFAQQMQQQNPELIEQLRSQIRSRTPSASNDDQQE
UniProt Q9BWJ5: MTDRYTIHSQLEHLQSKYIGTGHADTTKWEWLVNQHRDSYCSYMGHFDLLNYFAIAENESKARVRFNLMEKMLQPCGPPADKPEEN
UniProt Q6P4A7: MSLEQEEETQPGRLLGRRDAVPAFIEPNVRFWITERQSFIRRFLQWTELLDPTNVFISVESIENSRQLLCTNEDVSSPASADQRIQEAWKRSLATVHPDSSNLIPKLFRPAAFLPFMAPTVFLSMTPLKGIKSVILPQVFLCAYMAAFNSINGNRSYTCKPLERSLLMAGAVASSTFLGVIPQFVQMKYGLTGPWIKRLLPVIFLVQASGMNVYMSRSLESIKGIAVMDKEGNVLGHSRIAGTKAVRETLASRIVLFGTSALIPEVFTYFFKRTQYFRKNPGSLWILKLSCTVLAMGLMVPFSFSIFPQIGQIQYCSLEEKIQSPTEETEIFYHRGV
UniProt Q01105, whole entry, looked up: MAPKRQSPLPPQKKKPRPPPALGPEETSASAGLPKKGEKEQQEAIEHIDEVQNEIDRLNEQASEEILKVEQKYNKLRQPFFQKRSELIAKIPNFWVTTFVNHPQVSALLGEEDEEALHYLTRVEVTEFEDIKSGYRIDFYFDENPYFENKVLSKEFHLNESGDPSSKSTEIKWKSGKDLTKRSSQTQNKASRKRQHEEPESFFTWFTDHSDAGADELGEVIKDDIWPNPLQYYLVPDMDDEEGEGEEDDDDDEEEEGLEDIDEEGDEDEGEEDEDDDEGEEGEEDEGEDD
UniProt P60468, whole entry, looked up: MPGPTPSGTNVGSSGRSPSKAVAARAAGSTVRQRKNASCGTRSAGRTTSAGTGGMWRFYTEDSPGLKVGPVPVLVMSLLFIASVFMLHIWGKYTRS
UniProt Q14141: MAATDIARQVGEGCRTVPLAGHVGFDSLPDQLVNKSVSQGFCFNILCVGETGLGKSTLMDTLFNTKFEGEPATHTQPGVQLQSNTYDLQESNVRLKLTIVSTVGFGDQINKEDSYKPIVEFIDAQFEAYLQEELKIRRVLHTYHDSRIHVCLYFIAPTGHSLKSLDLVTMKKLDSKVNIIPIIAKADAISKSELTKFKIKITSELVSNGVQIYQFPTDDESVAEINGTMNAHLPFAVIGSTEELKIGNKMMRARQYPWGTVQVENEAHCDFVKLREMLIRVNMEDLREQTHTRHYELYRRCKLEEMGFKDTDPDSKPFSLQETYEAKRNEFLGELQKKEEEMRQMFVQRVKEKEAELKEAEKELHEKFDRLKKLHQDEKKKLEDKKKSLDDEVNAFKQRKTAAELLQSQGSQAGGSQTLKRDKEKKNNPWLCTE
UniProt Q15428: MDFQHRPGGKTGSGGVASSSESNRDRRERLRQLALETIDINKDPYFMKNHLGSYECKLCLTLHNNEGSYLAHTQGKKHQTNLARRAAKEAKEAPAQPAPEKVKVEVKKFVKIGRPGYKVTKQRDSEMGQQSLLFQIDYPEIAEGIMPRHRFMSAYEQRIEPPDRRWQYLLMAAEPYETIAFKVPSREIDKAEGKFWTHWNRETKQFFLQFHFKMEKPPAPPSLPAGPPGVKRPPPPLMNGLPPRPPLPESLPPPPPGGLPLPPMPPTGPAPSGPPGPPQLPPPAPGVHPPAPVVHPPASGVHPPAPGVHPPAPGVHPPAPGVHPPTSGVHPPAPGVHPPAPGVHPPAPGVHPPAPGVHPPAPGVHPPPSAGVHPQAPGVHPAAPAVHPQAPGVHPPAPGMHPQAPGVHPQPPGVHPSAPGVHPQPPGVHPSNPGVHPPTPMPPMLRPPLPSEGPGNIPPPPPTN
UniProt P23246: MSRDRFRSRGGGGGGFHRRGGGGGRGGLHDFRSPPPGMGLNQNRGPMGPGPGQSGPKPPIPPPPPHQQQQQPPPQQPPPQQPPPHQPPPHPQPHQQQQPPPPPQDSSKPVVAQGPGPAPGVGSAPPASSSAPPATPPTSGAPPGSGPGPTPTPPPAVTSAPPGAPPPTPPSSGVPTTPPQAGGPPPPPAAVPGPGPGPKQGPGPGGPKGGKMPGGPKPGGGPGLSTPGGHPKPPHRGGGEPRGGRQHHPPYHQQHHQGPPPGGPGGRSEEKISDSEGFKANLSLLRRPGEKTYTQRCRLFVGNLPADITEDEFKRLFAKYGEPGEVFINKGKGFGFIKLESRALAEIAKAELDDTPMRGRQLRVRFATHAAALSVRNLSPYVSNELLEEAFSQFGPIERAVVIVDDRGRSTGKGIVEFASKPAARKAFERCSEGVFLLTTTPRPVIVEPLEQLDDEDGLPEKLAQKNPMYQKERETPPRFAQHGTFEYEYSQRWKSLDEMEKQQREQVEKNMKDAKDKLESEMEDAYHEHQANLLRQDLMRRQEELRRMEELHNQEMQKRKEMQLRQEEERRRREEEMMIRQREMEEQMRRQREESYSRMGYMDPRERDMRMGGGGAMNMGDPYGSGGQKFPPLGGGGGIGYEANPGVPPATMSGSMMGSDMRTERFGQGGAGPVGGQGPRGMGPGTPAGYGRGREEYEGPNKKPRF
UniProt O60613, whole entry, looked up: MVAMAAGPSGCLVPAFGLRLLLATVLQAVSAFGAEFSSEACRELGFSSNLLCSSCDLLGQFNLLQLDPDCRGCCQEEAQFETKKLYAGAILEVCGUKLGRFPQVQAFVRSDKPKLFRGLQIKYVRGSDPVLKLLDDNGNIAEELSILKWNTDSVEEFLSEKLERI
UniProt Q9Y6D0, whole entry, looked up: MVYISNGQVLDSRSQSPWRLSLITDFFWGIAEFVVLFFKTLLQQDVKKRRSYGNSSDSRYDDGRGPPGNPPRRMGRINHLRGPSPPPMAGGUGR
UniProt Q9Y3B4: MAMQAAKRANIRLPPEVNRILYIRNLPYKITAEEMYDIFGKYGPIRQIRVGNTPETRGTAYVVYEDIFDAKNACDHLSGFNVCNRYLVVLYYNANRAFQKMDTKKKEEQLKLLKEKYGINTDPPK
UniProt P08697: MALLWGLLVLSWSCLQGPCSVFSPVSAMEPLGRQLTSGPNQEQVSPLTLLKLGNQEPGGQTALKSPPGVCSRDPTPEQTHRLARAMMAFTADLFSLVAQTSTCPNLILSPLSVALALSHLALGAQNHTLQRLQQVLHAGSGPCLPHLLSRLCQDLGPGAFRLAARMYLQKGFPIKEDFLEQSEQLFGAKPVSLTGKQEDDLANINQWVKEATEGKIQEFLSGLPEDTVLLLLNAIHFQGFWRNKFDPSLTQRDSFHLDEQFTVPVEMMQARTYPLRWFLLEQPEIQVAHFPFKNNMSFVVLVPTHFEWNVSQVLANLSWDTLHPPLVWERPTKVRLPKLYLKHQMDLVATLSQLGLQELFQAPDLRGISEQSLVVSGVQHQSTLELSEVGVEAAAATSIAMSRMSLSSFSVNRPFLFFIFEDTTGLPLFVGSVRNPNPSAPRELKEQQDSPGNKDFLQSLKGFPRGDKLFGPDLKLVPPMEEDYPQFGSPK
UniProt Q15459: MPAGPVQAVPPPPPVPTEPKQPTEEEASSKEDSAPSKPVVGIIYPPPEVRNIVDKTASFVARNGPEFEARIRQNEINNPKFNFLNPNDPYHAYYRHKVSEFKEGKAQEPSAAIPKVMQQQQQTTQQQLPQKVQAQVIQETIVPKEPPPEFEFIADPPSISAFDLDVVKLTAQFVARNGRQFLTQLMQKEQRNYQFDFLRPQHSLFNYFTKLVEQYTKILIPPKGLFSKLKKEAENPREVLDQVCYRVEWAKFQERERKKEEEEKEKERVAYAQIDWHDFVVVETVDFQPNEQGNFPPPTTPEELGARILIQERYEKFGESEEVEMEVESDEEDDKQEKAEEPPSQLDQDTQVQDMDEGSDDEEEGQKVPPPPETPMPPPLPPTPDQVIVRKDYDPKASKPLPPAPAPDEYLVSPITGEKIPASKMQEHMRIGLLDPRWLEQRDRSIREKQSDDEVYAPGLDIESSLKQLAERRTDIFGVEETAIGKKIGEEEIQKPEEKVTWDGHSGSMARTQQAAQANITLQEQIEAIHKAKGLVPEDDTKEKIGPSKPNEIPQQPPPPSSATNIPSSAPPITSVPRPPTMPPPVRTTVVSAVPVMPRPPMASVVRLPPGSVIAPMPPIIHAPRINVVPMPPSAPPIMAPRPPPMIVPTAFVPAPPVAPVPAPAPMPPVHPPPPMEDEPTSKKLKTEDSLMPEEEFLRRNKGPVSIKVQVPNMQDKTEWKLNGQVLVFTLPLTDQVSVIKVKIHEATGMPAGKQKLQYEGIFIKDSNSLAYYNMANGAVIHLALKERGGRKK

[2] = compound: NC(=O)c1cnc(N[C@@H]2CCCC[C@@H]2N)nc1Nc1cccc(-n2nccn2)c1
Method in brief: as §1

[3] = compound: NC1(c2ccc(-c3nc4ccn5c(=O)[nH]nc5c4cc3-c3ccccc3)cc2)CCC1
Method in brief: as §1

[4] = compound: NCC(=O)Nc1ccc(-n2nc(C(F)(F)F)cc2-c2ccc3c(ccc4ccccc43)c2)cc1
Method in brief: as §1

entinostat = compound: Nc1ccccc1NC(=O)c1ccc(CNC(=O)OCc2cccnc2)cc1 [entinostat]
Method in brief: as §1

vorinostat = compound: O=C(CCCCCCC(=O)Nc1ccccc1)NO [vorinostat]
Method in brief: as §1

citarinostat = compound: O=C(CCCCCCNC(=O)c1cnc(N(c2ccccc2)c2ccccc2Cl)nc1)NO [citarinostat]
Method in brief: as §1

silmitasertib = compound: O=C(O)c1ccc2c(c1)nc(Nc1cccc(Cl)c1)c1ccncc12 [silmitasertib]
Method in brief: as §1

[5] = compound: O=C1NC(=O)C(c2cnc3ccccn23)=C1c1cn2c3c(cc(F)cc13)CN(C(=O)N1CCCCC1)CC2
Method in brief: as §1

[6] = compound: c1cc(OCCN2CCCCC2)cc(-c2n[nH]c3ccc(-c4nnc[nH]4)cc23)c1
Method in brief: as §1

Measured: log2 fold change

SGO1 (UniProt Q5FBB7)
inactive: [1] 0.008 | [2] -0.049 | [3] -0.031 | [4] 0.038 | entinostat -0.021 | vorinostat 0.004 | citarinostat 0.069 | silmitasertib 0.042 | [5] 0.002 | [6] -0.038

SEL1L3 (UniProt Q68CR1)
inactive: [1] -0.025 | [2] 0.009 | [3] -0.094 | [4] 0.002 | entinostat -0.015 | vorinostat 0.043 | citarinostat 0.04 | silmitasertib 0.053 | [5] -0.01 | [6] -0.1

SIN3A (UniProt Q96ST3)
inactive: [1] -0.02 | [2] -0.017 | [3] -0.054 | [4] -0.143 | entinostat 0.053 | vorinostat 0.164 | citarinostat 0.074 | silmitasertib 0.103 | [5] 0.054 | [6] -0.027

SETMAR (UniProt Q53H47)
active: citarinostat -0.629
inactive: [1] 0.11 | [2] -0.024 | [3] 0.05 | [4] -0.078 | entinostat -0.032 | vorinostat 0.004 | silmitasertib -0.064 | [5] -0.105 | [6] -0.255

SF3B4 (UniProt Q15427)
inactive: [1] -0.035 | [2] -0.068 | [3] 0.088 | [4] 0.002 | entinostat -0.029 | vorinostat 0.097 | citarinostat 0.031 | silmitasertib 0.098 | [5] 0.247 | [6] -0.188

SGTA (UniProt O43765)
inactive: [1] 0.008 | [2] 0.01 | [3] -0.073 | [4] -0.056 | entinostat 0.017 | vorinostat -0.008 | citarinostat 0.048 | silmitasertib 0.014 | [5] -0.077 | [6] 0.022

SF3B5 (UniProt Q9BWJ5)
inactive: [1] 0.081 | [2] 0.043 | [3] -0.034 | [4] 0.038 | entinostat 0.116 | vorinostat -0.004 | citarinostat -0.016 | silmitasertib 0.016 | [5] -0.127 | [6] 0

SFXN4 (UniProt Q6P4A7)
inactive: [1] -0.013 | [2] -0.068 | [3] -0.029 | [4] -0.041 | entinostat -0.001 | vorinostat 0.07 | citarinostat 0.042 | silmitasertib 0.023 | [5] -0.026 | [6] -0.056

Two neighbouring entries out of the list so far, for reference:
SGTA (UniProt O43765)
inactive: [1] 0.008 | [2] 0.01 | [3] -0.073 | [4] -0.056 | entinostat 0.017 | vorinostat -0.008 | citarinostat 0.048 | silmitasertib 0.014 | [5] -0.077 | [6] 0.022

SF3B5 (UniProt Q9BWJ5)
inactive: [1] 0.081 | [2] 0.043 | [3] -0.034 | [4] 0.038 | entinostat 0.116 | vorinostat -0.004 | citarinostat -0.016 | silmitasertib 0.016 | [5] -0.127 | [6] 0

More entries

SEPTIN5 (UniProt Q99719)
inactive: [1] -0.005 | [2] -0.012 | [3] -0.011 | [4] -0.004 | entinostat -0.017 | vorinostat -0.001 | citarinostat 0.059 | silmitasertib -0.038 | [5] -0.013 | [6] -0.021

SERPINB1 (UniProt P30740)
inactive: [1] 0.004 | [2] -0.044 | [3] -0.043 | [4] -0.04 | entinostat 0.02 | vorinostat 0.026 | citarinostat 0.01 | silmitasertib -0.021 | [5] -0.051 | [6] -0.008

SIRT6 (UniProt Q8N6T7)
inactive: [1] -0.147 | [2] 0.094 | [3] -0.068 | [4] -0.08 | entinostat 0.14 | vorinostat 0.04 | citarinostat 0.047 | silmitasertib 0.034 | [5] -0.143 | [6] 0.004

SET isoform 2 (UniProt Q01105)
inactive: [1] 0.044 | [2] -0.006 | [3] 0 | [4] 0.044 | entinostat 0 | vorinostat -0.039 | citarinostat 0.005 | silmitasertib -0.015 | [5] 0.012 | [6] -0.002

SEC61B (UniProt P60468)
inactive: [1] -0.069 | [2] -0.023 | [3] 0.036 | [4] -0.044 | entinostat 0.022 | vorinostat -0.048 | citarinostat 0.007 | silmitasertib 0.011 | [5] 0.032 | [6] -0.088

SEC63 (UniProt Q9UGP8)
inactive: [1] -0.01 | [2] -0.002 | [3] 0.005 | [4] -0.029 | entinostat 0.025 | vorinostat -0.008 | citarinostat 0.041 | silmitasertib -0.02 | [5] -0.009 | [6] -0.024

SEPTIN6 (UniProt Q14141)
inactive: [1] 0.041 | [2] 0 | [3] 0.142 | [4] 0.008 | entinostat 0.005 | vorinostat -0.089 | citarinostat 0 | silmitasertib -0.064 | [5] -0.032 | [6] -0.021

SF3A2 (UniProt Q15428)
inactive: [1] -0.051 | [2] -0.074 | [3] 0.05 | [4] -0.128 | entinostat -0.02 | vorinostat -0.01 | citarinostat 0.031 | silmitasertib 0.072 | [5] -0.025 | [6] -0.107

SFPQ (UniProt P23246)
inactive: [1] 0.01 | [2] 0.016 | [3] 0.152 | [4] -0.018 | entinostat 0.002 | vorinostat 0.013 | citarinostat 0.011 | silmitasertib 0.112 | [5] 0.037 | [6] -0.12

SELENOF (UniProt O60613)
inactive: [1] -0.041 | [2] -0.063 | [3] -0.023 | [4] 0.026 | entinostat -0.034 | vorinostat -0.066 | citarinostat 0.025 | silmitasertib 0.021 | [5] -0.04 | [6] -0.035

SHMT1 (UniProt P34896)
inactive: [1] 0.067 | [2] 0.045 | [3] -0.008 | [4] 0.033 | entinostat 0.001 | vorinostat -0.044 | citarinostat 0.027 | silmitasertib 0.002 | [5] 0.024 | [6] -0.013

SELENOK (UniProt Q9Y6D0)
inactive: [1] -0.053 | [2] 0 | [3] 0.111 | [4] 0.02 | entinostat -0.072 | vorinostat 0.274 | citarinostat 0.265 | silmitasertib 0.235 | [5] 0.219 | [6] -0.207

SFXN2 (UniProt Q96NB2)
inactive: [1] -0.07 | [2] 0.041 | [3] 0.008 | [4] -0.039 | entinostat -0.044 | vorinostat 0.083 | citarinostat 0.077 | silmitasertib -0.023 | [5] -0.015 | [6] -0.018

SH3BP5L (UniProt Q7L8J4)
inactive: [1] -0.141 | [2] -0.11 | [3] -0.084 | [4] -0.065 | entinostat 0.057 | vorinostat -0.021 | citarinostat 0.054 | silmitasertib 0.053 | [5] -0.034 | [6] -0.077

SF3B6 (UniProt Q9Y3B4)
inactive: [1] 0.05 | [2] -0.042 | [3] 0.022 | [4] 0.002 | entinostat -0.019 | vorinostat 0.037 | citarinostat 0.023 | silmitasertib -0.055 | [5] -0.176 | [6] -0.079

SEC61A2 (UniProt Q9H9S3)
inactive: [1] 0.038 | [2] -0.013 | [3] -0.033 | [4] 0.021 | entinostat 0.002 | vorinostat -0.043 | citarinostat 0.027 | silmitasertib 0.01 | [5] 0.006 | [6] -0.079

SERPINF2 (UniProt P08697)
inactive: [1] -0.205 | [2] 0.029 | [3] 0.059 | [4] 0.061 | entinostat 0.017 | vorinostat 0.323 | citarinostat 0.128 | silmitasertib 0.165 | [5] 0.065 | [6] 0.429

SF3A1 (UniProt Q15459)
inactive: [1] 0.009 | [2] -0.01 | [3] -0.007 | [4] 0.009 | entinostat 0.038 | vorinostat -0.011 | citarinostat 0.019 | silmitasertib 0.004 | [5] 0.041 | [6] -0.023

SEMA4C (UniProt Q9C0C4)
inactive: [1] -0.016 | [2] 0.048 | [3] -0.129 | [4] 0.011 | entinostat -0.044 | vorinostat -0.023 | citarinostat 0.065 | silmitasertib -0.009 | [5] -0.046 | [6] -0.03

SIL1 (UniProt Q9H173)
inactive: [1] 0.021 | [2] 0.007 | [3] -0.02 | [4] 0.007 | entinostat -0.006 | vorinostat -0.022 | citarinostat 0.024 | silmitasertib 0.089 | [5] -0.042 | [6] -0.053

SIRT5 (UniProt Q9NXA8)
inactive: [1] -0.002 | [2] 0.006 | [3] -0.087 | [4] -0.129 | entinostat 0.002 | vorinostat -0.054 | citarinostat -0.067 | silmitasertib 0.057 | [5] -0.052 | [6] -0.074

Reference: the supplement of paper PMC10849652
